{"source": "PubChem BioAssay AID493014", "about": "(National Center for Advancing Translational Sciences (NCATS), 2011)", "note": "The list shows a part of the results. The main result of the screen is listed elsewhere. These columns were measured beside it and carry no call. Compounds called inactive in the main read-out are mostly missing here. The note in brackets gives the kind of curve behind each potency; many fits are weak."}
{"assay": "qHTS Assay to Find Inhibitors of Chronic Active B-Cell Receptor Signaling", "conditions": "ABC-DLBCL IkBa-CBG/CBR reporter, luminescence ratio (green luciferase fused to IkBa over red control in TMD8 lymphoma cells), 4 h; measured here: CBR red luminescence, cell number", "in_short": "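Doxycycline induced both beetle luciferases in TMD8 lymphoma cells; IKK-driven degradation limits the IkappaBalpha-fused green signal, while red luminescence normalises for cell number and nonspecific effects. Compounds tested up to 46 uM, 4 hrs.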"}
{"smiles": "O=C(NCc1ccccc1)c1cc(-c2cccs2)on1", "AC50": "7.94 µM [falling, partial curve]"}
{"smiles": "COc1ccccc1Nc1cc(C(=O)NCCCN2CCOCC2)c2ccccc2n1", "AC50": "35.5 µM [falling, single point]"}
{"smiles": "O=C(C1CC1)N1N=C(c2ccc(F)cc2)CC1(O)C(F)(F)F", "note": "(configuration not stated)", "AC50": "35.5 µM [rising, single point]"}
{"smiles": "CCN(CCn1cccn1)C(=O)CC1C(=O)NCCN1Cc1ccc(OC)c(OC)c1", "note": "(configuration not stated)", "AC50": "14.1 µM [rising, single point]"}
{"smiles": "CN(c1ccccc1)S(=O)(=O)c1cc(C(=O)Nc2nc3ccccc3[nH]2)ccc1Cl", "AC50": "20.6 µM [falling, single point]"}
{"smiles": "CC1=N/C(=C\\c2ccc([N+](=O)[O-])cc2)C(=O)N1c1ccc(Cl)cc1", "AC50": "2.24 µM [falling, partial curve, poor fit]"}
{"smiles": "CCCC(=O)Nc1ccc(-c2nc3ncccc3o2)cc1", "AC50": "15.8 µM [rising, partial curve, poor fit]"}
{"smiles": "O=C(/C=C\\c1ccc2c(c1)OCO2)CC1(O)C(=O)Nc2ccccc21", "note": "(configuration not stated)", "AC50": "35.5 µM [falling, single point]"}
{"smiles": "O=C(CSc1nnnn1-c1ccccc1)Nc1ncc2c(n1)CC(c1ccccc1)CC2=O", "note": "(configuration not stated)", "AC50": "4.11 µM [rising, single point]"}
{"smiles": "CCc1ccc(C(=O)c2cn(CC(=O)Nc3cccc(OC)c3)c3ccc(OC)cc3c2=O)cc1", "AC50": "20.6 µM [falling, single point]"}
{"smiles": "CCOC(=O)c1cnn2c(C)cc(-c3ccc(F)cc3)nc12", "AC50": "1.41 µM [rising, partial curve, poor fit]"}
{"smiles": "COc1ccccc1N1CCN(c2ncnc3c2cnn3-c2cc(Cl)ccc2C)CC1", "AC50": "5.62 µM [falling, partial curve, poor fit]"}
{"smiles": "COc1ccc(OCC(=O)NCc2ccc3c(c2)CCN3C(=O)c2ccccc2)cc1", "AC50": "11.2 µM [rising, partial curve]"}
{"smiles": "O=C(CCCNS(=O)(=O)c1ccccc1)NCc1ccco1", "AC50": "4.61 µM [falling, partial curve, poor fit]"}
{"smiles": "O=S(=O)(c1ccc(Br)s1)N1CCCCC1", "AC50": "6.51 µM [rising, single point]"}
{"smiles": "CCOC(=O)c1c(COc2ccccc2)oc2ccc(O)cc12", "AC50": "7.94 µM [rising, partial curve, poor fit]"}
{"smiles": "CN(C)CCCN(C(=O)COc1ccccc1)c1nc2ccc(Cl)cc2s1", "AC50": "12.6 µM [falling, single point]"}
{"smiles": "CN(CC(=O)Nc1ccc(Br)cc1)Cc1ccccc1", "AC50": "3.16 µM [rising, partial curve, poor fit]"}
{"smiles": "c1ccc(-c2ccc(-c3nc(-c4ccncc4)no3)cc2)cc1", "AC50": "0.562 µM [rising, full curve, poor fit]"}
{"smiles": "COC(=O)c1ccc(CSc2nncn2C)cc1", "AC50": "35.5 µM [falling, single point]"}
{"smiles": "Cc1ccc(C)c(OCC(=O)Nc2cccc(S(=O)(=O)NC3=NCCCCC3)c2)c1", "AC50": "10 µM [falling, partial curve, poor fit]"}
{"smiles": "Cc1ccc(C(=O)NC(C#N)=C(Cl)Cl)cc1", "AC50": "2.82 µM [falling, full curve]"}
{"smiles": "Cc1nc2cc(-c3ccc(Cl)cc3)nn2c(C)c1CCC(=O)NC(C)c1ccc2c(c1)OCCO2", "note": "(configuration not stated)", "AC50": "0.184 µM [falling, full curve]"}
{"smiles": "O=C(c1cc2c(ccc3ccccc32)o1)N1CCCCC1", "AC50": "11.2 µM [falling, single point]"}
{"smiles": "Cn1cccc1/C=N/NC(=O)c1ccccn1", "AC50": "20 µM [falling, single point]"}
{"smiles": "Cc1nn(C)c(C)c1NC(=O)CSc1nc(-c2ccccc2Cl)nc2c1cnn2-c1ccccc1", "AC50": "18.4 µM [falling, single point]"}
{"smiles": "O=C(/C=C/c1ccccc1)N1CCC(c2ccccc2)C1", "note": "(configuration not stated)", "AC50": "5.17 µM [falling, partial curve]"}
{"smiles": "Cc1ccc(NC(=O)CSc2nnnn2-c2ccc3c(c2)OCO3)cc1C", "AC50": "3.26 µM [rising, single point]"}
{"smiles": "COc1ccc(/C=C2\\Sc3ccc(C(=O)NCc4cccnc4)cc3N(C)C2=O)cc1OC", "AC50": "35.5 µM [falling, partial curve, poor fit]"}
{"smiles": "N#Cc1ccc(/C=N/N=C(N)N)cc1", "AC50": "0.164 µM [falling, full curve, poor fit]"}
{"smiles": "COc1ccc(S(=O)(=O)N2CCCCCC2)cc1C(=O)N(C)CC(=O)Nc1ccc(F)cc1", "AC50": "0.0366 µM [rising, full curve, poor fit]"}
{"smiles": "CCOC(=O)Cc1csc(NC(=O)c2cccc(OC)c2)n1", "AC50": "2.91 µM [falling, partial curve]"}
{"smiles": "CSc1ccccc1OCc1cc(C(=O)NCc2ccc(C)s2)no1", "AC50": "17.8 µM [falling, single point]"}
{"smiles": "N#Cc1c(/N=C/c2ccc(Br)s2)sc2c1CCC2", "AC50": "25.9 µM [rising, partial curve, poor fit]"}
{"smiles": "Cc1ccc(CNC(=O)CC2(CC3=NS(=O)(=O)c4ccccc4N3)CCCC2)cc1", "AC50": "1.78 µM [falling, full curve, poor fit]"}
{"smiles": "COc1ccccc1C/C(N)=N/OC(=O)c1cccc([N+](=O)[O-])c1", "AC50": "10.3 µM [rising, partial curve, poor fit]"}
{"smiles": "CCc1noc(C)c1C(=O)Nc1nc(-c2cc(OC)ccc2OC)cs1", "AC50": "0.58 µM [rising, full curve, poor fit]"}
{"smiles": "Cc1cccc(NC(=S)NC(=O)CC2CC(C)(C)OC2=O)c1", "note": "(configuration not stated)", "AC50": "11.2 µM [falling, single point]"}
{"smiles": "O=C(CCNC(=O)c1ccccc1Cl)Nc1nc2ccc(F)cc2s1", "AC50": "18.4 µM [falling, single point]"}
{"smiles": "S=c1[nH]nc(C2CCCCC2)n1/N=C/c1ccccc1Cl", "AC50": "25.1 µM [rising, single point]"}
{"smiles": "Cc1ccc(C(=O)c2cc([N+](=O)[O-])ccc2N2CC(C)OC(C)C2)cc1", "note": "(configuration not stated)", "AC50": "2.91 µM [falling, single point]"}
{"smiles": "Nc1nc(-c2c[nH]c3ccccc23)cs1", "AC50": "3.26 µM [falling, full curve]"}
